Values from PubChem BioAssay AID1259254 (NCATS, 2017).

- Purpose: 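Gene knock-downs that lead to re-replication, shown by excess G2 DNA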 (primary screen)
- Cells: human HCT116 colorectal cancer cells
- Reagents: single siRNA against human genes
- Duration: 3 days
- Measurement: 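Nuclei stained with Hoechst and imaged; cell-cycle phase assigned by DNA content; G2 share scaled per plate, non-targeting siRNA 0%, GMNN siRNA 100%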
- Reading the numbers: G2 robust z-score and G2 cells, % of GMNN control: higher = more G2 cells, more excess DNA replication; raw share of cells in G2: higher = larger share of cells with G2 DNA content
- Active means: 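Active siRNAs have a G2 robust z of 5 or more median absolute deviations over the median, which in these data means about 38% or higher of GMNN control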
The whole screen tested about 59,000 reagents; shown is an unselected part. About 1,550 of all reagents (2.6%) count as active. 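G2 share is only a proxy for re-replication; each gene was hit by three separate siRNAs, and active genes were retested.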 Raw values are not corrected between plates. The numbers tell different reagents against one gene apart. Reagent sequences are not shown. The record does not give: the amount of reagent.

| target gene | siRNA no. | G2 robust z-score | G2 cells, % of GMNN control | raw share of cells in G2 (%) | outcome |
| --- | --- | --- | --- | --- | --- |
| TYRP1 (tyrosinase related protein 1) | 1 | -0.979 | -3.92 | 3.94 | inactive |
| TYRP1 (tyrosinase related protein 1) | 2 | 0.288 | 4.99 | 6.12 | inactive |
| TYRP1 (tyrosinase related protein 1) | 3 | 0.201 | 4.38 | 5.89 | inactive |
| EMC4 (ER membrane protein complex subunit 4) | 1 | -0.691 | -1.89 | 3.13 | inactive |
| EMC4 (ER membrane protein complex subunit 4) | 2 | -0.142 | 1.97 | 5.29 | inactive |
| EMC4 (ER membrane protein complex subunit 4) | 3 | 3.7 | 29 | 12.4 | inactive |
| CCNB1 (cyclin B1) | 1 | 5.99 | 45.1 | 21.1 | active |
| CCNB1 (cyclin B1) | 2 | 0.627 | 7.38 | 6.74 | inactive |
| CCNB1 (cyclin B1) | 3 | 3.66 | 28.7 | 14.5 | inactive |
| MUC19 (mucin 19, oligomeric (gene/pseudogene)) | 1 | 5.64 | 42.7 | 19.2 | active |
| MUC19 (mucin 19, oligomeric (gene/pseudogene)) | 2 | 1.1 | 10.7 | 7.18 | inactive |
| MUC19 (mucin 19, oligomeric (gene/pseudogene)) | 3 | -0.11 | 2.19 | 3.93 | inactive |
| MUC19 (mucin 19, oligomeric (gene/pseudogene)) | 4 | -0.425 | -0.0244 | 3.66 | inactive |
| MUC19 (mucin 19, oligomeric (gene/pseudogene)) | 5 | 0.127 | 3.86 | 5.09 | inactive |
| MUC19 (mucin 19, oligomeric (gene/pseudogene)) | 6 | 1.43 | 13 | 8.38 | inactive |
| EIF5A (eukaryotic translation initiation factor 5A) | 1 | -0.0279 | 2.77 | 6.24 | inactive |
| EIF5A (eukaryotic translation initiation factor 5A) | 2 | 2.96 | 23.8 | 14.3 | inactive |
| EIF5A (eukaryotic translation initiation factor 5A) | 3 | 1.14 | 11 | 7.58 | inactive |

A portion of the results above, as a working copy:
| target gene | siRNA no. | G2 robust z-score | G2 cells, % of GMNN control | raw share of cells in G2 (%) | outcome |
| --- | --- | --- | --- | --- | --- |
| EMC4 (ER membrane protein complex subunit 4) | 2 | -0.142 | 1.97 | 5.29 | inactive |
| EMC4 (ER membrane protein complex subunit 4) | 3 | 3.7 | 29 | 12.4 | inactive |
| CCNB1 (cyclin B1) | 1 | 5.99 | 45.1 | 21.1 | active |
| CCNB1 (cyclin B1) | 2 | 0.627 | 7.38 | 6.74 | inactive |
| CCNB1 (cyclin B1) | 3 | 3.66 | 28.7 | 14.5 | inactive |
| MUC19 (mucin 19, oligomeric (gene/pseudogene)) | 1 | 5.64 | 42.7 | 19.2 | active |
| MUC19 (mucin 19, oligomeric (gene/pseudogene)) | 2 | 1.1 | 10.7 | 7.18 | inactive |

Further results follow:
| target gene | siRNA no. | G2 robust z-score | G2 cells, % of GMNN control | raw share of cells in G2 (%) | outcome |
| --- | --- | --- | --- | --- | --- |
| SELL (selectin L) | 1 | -0.765 | -2.41 | 4.87 | inactive |
| SELL (selectin L) | 2 | -0.268 | 1.08 | 4.92 | inactive |
| SELL (selectin L) | 3 | 1.38 | 12.7 | 8.15 | inactive |
| OR5K1 (olfactory receptor family 5 subfamily K member 1) | 1 | -0.421 | 0.0068 | 4.42 | inactive |
| OR5K1 (olfactory receptor family 5 subfamily K member 1) | 2 | 0.107 | 3.72 | 5.55 | inactive |
| OR5K1 (olfactory receptor family 5 subfamily K member 1) | 3 | -0.132 | 2.04 | 4.01 | inactive |
| SLC6A6 | 1 | -0.46 | -0.268 | 5.59 | inactive |
| SLC6A6 | 2 | -1.08 | -4.6 | 2.97 | inactive |
| SLC6A6 | 3 | -0.521 | -0.698 | 3.73 | inactive |
| GOLGA1 (golgin A1) | 1 | -0.0664 | 2.5 | 6.47 | inactive |
| GOLGA1 (golgin A1) | 2 | 1.08 | 10.5 | 7.95 | inactive |
| GOLGA1 (golgin A1) | 3 | -0.539 | -0.822 | 3.2 | inactive |
| AGVR6190 (retired record) | 1 | 2.28 | 19 | 10.9 | inactive |
| AGVR6190 (retired record) | 2 | 1.86 | 16 | 9.04 | inactive |
| AGVR6190 (retired record) | 3 | -0.512 | -0.635 | 2.96 | inactive |
| PWWP2B (PWWP domain containing 2B) | 1 | -0.598 | -1.24 | 3.16 | inactive |
| PWWP2B (PWWP domain containing 2B) | 2 | 0.462 | 6.22 | 5.04 | inactive |
| PWWP2B (PWWP domain containing 2B) | 3 | 0.302 | 5.09 | 4.37 | inactive |
| GRAPL-AS1 (GRAPL antisense RNA 1) | 1 | 2.67 | 21.8 | 8.33 | inactive |
| GRAPL-AS1 (GRAPL antisense RNA 1) | 2 | -1.22 | -5.6 | 2.12 | inactive |
| GRAPL-AS1 (GRAPL antisense RNA 1) | 3 | 0.348 | 5.42 | 6.67 | inactive |
| PRSS1 (serine protease 1) | 1 | -0.45 | -0.198 | 5.49 | inactive |
| PRSS1 (serine protease 1) | 2 | -0.686 | -1.86 | 4.25 | inactive |
| PRSS1 (serine protease 1) | 3 | -0.758 | -2.37 | 3.03 | inactive |
| STUB1 (STIP1 homology and U-box containing protein 1) | 1 | -1.55 | -7.93 | 2.25 | inactive |
| STUB1 (STIP1 homology and U-box containing protein 1) | 2 | -0.975 | -3.89 | 4.94 | inactive |
| STUB1 (STIP1 homology and U-box containing protein 1) | 3 | 0.171 | 4.17 | 5.19 | inactive |
| STRADA (STE20 related adaptor alpha) | 1 | -1.1 | -4.74 | 4.11 | inactive |
| STRADA (STE20 related adaptor alpha) | 2 | 5.95 | 44.9 | 21.5 | active |
| STRADA (STE20 related adaptor alpha) | 3 | 0.873 | 9.11 | 6.6 | inactive |
